Article doi:10.1101/2021.08.20.456807

Protein sequences, listed by entry. Tags and fused reporters are not part of them. Residues count along the entry.
UniProt Q9NZJ4: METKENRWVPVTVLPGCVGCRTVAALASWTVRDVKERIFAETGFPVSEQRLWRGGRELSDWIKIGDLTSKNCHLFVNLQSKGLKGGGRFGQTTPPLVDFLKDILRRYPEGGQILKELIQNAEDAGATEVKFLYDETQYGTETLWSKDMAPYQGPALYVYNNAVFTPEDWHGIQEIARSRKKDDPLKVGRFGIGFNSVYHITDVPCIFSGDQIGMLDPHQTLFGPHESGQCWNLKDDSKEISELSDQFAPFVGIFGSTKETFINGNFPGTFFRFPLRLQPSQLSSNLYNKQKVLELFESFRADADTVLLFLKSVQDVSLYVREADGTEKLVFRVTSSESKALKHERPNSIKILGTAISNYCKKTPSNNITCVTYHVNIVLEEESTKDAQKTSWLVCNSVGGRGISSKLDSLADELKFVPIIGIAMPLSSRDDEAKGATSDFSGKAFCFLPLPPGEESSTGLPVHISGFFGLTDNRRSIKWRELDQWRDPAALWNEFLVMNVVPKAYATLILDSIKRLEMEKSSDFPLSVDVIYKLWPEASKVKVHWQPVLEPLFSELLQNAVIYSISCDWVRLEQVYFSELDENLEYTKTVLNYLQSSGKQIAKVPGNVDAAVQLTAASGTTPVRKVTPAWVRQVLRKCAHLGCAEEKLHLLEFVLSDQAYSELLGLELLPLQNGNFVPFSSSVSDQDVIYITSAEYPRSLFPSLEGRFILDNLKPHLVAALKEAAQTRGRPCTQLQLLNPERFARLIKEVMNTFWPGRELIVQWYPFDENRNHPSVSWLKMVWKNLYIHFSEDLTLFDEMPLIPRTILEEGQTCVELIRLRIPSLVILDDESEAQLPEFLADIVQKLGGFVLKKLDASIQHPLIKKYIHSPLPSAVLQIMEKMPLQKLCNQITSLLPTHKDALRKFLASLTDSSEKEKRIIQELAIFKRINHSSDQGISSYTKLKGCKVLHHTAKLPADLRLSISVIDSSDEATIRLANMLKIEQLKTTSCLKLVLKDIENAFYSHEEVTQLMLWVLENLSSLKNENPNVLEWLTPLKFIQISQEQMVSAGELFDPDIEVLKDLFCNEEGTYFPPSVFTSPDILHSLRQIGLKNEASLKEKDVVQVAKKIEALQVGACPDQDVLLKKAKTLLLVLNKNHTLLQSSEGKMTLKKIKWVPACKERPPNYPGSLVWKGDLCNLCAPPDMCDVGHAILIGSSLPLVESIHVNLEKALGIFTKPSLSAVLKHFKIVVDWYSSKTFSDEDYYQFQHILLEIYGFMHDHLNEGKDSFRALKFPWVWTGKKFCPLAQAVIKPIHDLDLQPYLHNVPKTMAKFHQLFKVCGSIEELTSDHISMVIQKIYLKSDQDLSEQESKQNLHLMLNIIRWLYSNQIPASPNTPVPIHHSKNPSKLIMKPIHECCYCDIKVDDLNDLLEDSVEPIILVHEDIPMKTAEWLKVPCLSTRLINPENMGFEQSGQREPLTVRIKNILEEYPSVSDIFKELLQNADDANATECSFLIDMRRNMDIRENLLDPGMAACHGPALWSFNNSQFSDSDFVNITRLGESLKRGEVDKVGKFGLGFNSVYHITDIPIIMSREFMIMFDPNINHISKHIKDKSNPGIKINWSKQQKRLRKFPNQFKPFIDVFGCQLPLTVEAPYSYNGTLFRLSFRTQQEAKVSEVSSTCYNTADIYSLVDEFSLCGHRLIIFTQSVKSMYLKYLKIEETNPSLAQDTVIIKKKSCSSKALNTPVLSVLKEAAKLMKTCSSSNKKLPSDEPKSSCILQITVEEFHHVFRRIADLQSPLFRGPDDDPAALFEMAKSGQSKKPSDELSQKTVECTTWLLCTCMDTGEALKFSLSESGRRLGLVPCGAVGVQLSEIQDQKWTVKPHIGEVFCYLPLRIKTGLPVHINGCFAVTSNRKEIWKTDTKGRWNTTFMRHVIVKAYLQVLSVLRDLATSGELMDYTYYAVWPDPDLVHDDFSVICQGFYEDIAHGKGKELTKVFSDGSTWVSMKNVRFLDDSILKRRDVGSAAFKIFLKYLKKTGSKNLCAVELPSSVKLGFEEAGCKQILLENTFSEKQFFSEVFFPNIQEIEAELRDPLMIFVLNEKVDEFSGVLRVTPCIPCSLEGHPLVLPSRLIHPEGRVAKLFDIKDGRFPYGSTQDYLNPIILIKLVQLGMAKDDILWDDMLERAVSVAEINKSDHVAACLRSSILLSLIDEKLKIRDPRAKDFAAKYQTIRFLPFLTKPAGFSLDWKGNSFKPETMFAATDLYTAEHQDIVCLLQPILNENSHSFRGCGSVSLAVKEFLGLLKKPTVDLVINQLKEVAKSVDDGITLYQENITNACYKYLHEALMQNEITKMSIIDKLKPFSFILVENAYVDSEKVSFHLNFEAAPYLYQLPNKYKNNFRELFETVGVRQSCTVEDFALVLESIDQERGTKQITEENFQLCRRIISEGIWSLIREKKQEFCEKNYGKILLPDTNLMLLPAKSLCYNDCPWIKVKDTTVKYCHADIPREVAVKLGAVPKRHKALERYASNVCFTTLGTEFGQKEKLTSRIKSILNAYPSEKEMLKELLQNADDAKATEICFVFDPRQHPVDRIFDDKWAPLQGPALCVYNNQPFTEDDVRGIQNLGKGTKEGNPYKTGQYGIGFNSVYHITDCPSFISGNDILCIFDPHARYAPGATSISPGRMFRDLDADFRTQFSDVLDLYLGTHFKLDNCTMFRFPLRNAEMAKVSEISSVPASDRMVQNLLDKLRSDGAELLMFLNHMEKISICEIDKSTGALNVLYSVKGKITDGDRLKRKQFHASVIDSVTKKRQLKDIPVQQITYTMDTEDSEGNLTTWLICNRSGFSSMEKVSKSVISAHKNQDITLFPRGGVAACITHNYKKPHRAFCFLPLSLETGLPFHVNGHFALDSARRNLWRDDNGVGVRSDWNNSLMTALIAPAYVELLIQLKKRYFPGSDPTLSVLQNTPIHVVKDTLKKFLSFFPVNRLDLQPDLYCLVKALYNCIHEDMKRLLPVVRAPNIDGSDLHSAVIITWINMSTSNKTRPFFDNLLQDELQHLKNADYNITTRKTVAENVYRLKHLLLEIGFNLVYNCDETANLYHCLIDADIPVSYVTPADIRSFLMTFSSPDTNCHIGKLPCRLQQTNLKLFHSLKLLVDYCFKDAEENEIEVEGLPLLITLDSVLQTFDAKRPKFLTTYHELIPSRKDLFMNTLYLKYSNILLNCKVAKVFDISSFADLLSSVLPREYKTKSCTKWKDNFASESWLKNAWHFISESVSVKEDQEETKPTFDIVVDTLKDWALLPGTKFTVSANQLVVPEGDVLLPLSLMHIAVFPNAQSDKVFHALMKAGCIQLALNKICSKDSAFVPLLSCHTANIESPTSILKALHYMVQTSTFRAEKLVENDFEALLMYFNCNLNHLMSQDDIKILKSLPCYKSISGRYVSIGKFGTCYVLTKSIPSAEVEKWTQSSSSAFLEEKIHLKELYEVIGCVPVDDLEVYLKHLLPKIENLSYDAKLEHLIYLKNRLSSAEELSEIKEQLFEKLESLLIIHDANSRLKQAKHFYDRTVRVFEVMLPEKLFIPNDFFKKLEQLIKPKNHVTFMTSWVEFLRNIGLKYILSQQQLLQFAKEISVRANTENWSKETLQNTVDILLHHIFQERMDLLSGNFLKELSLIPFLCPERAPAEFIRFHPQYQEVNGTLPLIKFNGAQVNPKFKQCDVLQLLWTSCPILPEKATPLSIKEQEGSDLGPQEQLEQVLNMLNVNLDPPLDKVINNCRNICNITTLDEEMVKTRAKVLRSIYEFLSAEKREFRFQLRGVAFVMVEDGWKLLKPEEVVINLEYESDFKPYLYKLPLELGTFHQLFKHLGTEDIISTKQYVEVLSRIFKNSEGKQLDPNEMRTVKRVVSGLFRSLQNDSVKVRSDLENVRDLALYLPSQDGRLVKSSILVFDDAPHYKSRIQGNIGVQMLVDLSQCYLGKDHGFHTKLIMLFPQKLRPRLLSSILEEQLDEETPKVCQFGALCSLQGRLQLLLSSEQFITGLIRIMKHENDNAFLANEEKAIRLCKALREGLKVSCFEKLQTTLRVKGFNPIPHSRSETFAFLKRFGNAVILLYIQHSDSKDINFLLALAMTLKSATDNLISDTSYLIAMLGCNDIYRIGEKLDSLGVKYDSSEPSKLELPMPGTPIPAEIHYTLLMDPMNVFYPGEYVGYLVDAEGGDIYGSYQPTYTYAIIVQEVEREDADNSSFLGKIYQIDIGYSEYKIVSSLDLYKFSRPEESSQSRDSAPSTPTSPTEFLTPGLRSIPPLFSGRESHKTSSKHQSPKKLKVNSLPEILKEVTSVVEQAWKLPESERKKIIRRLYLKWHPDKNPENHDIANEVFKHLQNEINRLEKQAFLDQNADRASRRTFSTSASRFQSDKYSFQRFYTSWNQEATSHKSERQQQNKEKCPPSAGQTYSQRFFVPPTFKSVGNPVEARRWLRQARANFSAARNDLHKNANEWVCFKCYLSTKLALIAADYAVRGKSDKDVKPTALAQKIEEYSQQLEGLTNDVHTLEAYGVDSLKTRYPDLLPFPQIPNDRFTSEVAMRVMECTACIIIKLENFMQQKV
UniProt P14625, residues 22-803: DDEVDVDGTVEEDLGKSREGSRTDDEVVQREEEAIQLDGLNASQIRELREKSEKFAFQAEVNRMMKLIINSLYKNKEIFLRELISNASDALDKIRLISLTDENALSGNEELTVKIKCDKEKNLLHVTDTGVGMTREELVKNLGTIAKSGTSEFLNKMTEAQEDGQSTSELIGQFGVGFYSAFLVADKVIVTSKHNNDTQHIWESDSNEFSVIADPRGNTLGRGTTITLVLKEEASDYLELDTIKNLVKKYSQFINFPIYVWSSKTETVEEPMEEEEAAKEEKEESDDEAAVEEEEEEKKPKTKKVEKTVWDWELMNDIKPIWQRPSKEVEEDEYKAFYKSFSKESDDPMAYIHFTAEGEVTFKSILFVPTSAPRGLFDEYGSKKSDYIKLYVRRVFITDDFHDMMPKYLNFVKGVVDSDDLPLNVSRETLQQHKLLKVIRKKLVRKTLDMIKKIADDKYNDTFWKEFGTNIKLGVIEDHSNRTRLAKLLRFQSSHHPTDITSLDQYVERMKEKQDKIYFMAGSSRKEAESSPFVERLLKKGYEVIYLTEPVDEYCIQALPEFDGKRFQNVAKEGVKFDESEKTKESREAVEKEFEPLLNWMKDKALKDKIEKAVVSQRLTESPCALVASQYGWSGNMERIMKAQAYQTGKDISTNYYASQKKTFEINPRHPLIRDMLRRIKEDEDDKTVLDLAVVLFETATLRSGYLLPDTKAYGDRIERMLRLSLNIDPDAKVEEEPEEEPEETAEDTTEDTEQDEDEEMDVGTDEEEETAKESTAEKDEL
UniProt P11021, residues 19-654: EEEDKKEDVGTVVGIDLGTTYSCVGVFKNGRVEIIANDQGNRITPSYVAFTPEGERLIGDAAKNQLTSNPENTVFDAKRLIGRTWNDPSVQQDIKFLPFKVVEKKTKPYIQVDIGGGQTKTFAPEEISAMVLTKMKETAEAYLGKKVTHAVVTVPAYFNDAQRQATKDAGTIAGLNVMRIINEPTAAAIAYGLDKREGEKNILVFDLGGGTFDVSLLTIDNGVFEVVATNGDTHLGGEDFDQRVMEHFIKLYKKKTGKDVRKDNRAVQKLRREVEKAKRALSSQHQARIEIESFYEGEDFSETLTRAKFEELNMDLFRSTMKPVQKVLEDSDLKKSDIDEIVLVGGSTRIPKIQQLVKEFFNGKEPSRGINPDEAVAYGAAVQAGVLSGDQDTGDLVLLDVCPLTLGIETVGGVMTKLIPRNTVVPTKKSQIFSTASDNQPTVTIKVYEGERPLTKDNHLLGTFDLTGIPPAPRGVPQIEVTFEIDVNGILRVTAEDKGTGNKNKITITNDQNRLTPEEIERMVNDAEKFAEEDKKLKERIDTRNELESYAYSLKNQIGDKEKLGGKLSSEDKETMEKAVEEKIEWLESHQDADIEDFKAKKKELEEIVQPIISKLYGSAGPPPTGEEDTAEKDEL
UniProt P08670: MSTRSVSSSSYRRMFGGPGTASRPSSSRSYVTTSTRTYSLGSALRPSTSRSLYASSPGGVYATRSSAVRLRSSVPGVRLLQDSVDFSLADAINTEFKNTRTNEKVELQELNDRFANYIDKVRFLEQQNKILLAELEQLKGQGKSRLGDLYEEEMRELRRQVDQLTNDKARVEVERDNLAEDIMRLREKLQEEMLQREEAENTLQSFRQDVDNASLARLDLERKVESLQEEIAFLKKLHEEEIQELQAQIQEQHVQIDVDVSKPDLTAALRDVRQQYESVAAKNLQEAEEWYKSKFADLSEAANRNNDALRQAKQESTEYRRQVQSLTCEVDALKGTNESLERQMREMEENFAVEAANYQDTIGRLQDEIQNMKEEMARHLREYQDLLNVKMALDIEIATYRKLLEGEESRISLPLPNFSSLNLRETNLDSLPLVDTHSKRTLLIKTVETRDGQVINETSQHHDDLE

biological target: sacsin (human (endogenous in SH-SY5Y)) (UniProt Q9NZJ4); assay: affinity purification with mass spectrometry

Row | binding | Substance
1 | binds | HSP90B1 (from UniProt P14625 22-803)
2 | binds | HSPA5/BIP (from UniProt P11021 19-654)
3 | binds | vimentin (from UniProt P08670 1-466)
4 | binds | vinculin (from UniProt P18206-2)

No constants are given. Whether binding was seen depends on the method and setting. In cells and extracts the contact can be indirect. A yes stands for co-enrichment or nearness to the bait. Other partners may have been found.
